Results as given in publication PMC3540817, “Transfer of a Redox-Signal through the Cytosol by Redox-Dependent Microcompartmentation of Glycolytic Enzymes at Mitochondria and Actin Cytoskeleton” (Frontiers in Plant Science, 2012).

Target: TOM40
Assay: far-Western, overlay or dot blot; VDAC3 in liposomes (controls: empty liposomes, TOM40) spotted on nitrocellulose, overlaid with 100 μg/ml aldolase without reductant (oxidized); anti-aldolase antibody; both purified

binding: no binding (tested: 100 μg/ml)
B1: recombinant cytosolic fructose 1,6-bisphosphate aldolase (FBA6, At2g36460) (enzyme, A. thaliana, UniProt Q9SJQ9 1-358, looked up)
chain: MSSFTSKFADELIANAAYIGTPGKGILAADESTGTIGKRLASINVENVESNRRALRELLFTTPGALPCLSGVILFEETLYQKSSDGTPFVDMLKSAGVLPGIKVDKGTVELAGTNGETTTQGLDGLGDRCKKYYEAGARFAKWRAVLKIGVNEPSQLAIHENAYGLARYAVICQENGLVPIVEPEILVDGSHDIQKCAAVTERVLAACYKALSDHHVLLEGTLLKPNMVTPGSESAKVAPEVIAEHTVRALQRTVPAAVPAIVFLSGGQSEEEATRNLNAMNQLKTKKPWSLSFSFGRALQQSTLKTWGGKEENVKKAQEAFLVRCKANSEATLGAYKGDAKLGEGAAESLHVKDYKY
notes: cytosolic fructose 1,6-bisphosphate aldolase FBA6, A. thaliana, At2g36460; Redox reagents were added to the mixtures; no modified residues are named; the redox state is told by the assay; source: recombinant, purified

Results are given in words; binding and its absence hold for the method and conditions named.
